In patent US11384109B2, “Method for separating phenolic acid glucoside compounds from Diaphragma juglandis Fructu” (Jiangnan University, priority 2020, dated 2022):
Some entries share one result that the patent states for a list of compounds. At least one structure is not confirmed: it was looked up by name or label, or the drawing left a doubt.

Test system: aging model mice induced by D-galactose
Assay: Antioxidant effects in subacute aging model mice induced by D-galactose (serum SOD by ELISA, liver MDA by colorimetry)
Type: in vivo, ICR mice
Details: overall conclusion from serum SOD and liver MDA in D-galactose aging model mice
Source text: 1.1 Animals: ICR mice, 6 weeks old, 20-25 g, SPF grade, purchased from Shanghai Slack Experimental Animal Co., Ltd.
1.2 Reagents: D-galactose, purchased from Sigma, USA; malondialdehyde (MDA) kit, purchased from Nanjing Jiancheng Bioengineering Institute; superoxide dismutase (SOD) kit, purchased from Shanghai Aisalai Eliza Biotechnology Co., Ltd.
2.1 Animal grouping and administration: after one week of adaptive feeding, mice were randomly divided into 5 groups, 10 mice each group. The administration group was gavaged with Compounds 1-3, 500 mg/kg per compound. The blank group and aging model group were gavaged with equal volume of normal saline for 6 weeks. […]
2.2 Sample preparation and index determination: 24 hours after the last administration, blood was collected from the eyeballs of mice; after dislocation for execution, the liver was removed, cleaned and ground at low temperature to prepare 10% tissue homogenate, which was centrifuged at 3500 rpm and 4° C. for 10 min, and supernatant was taken and stored at −20° C. The content of MDA in the liver tissue was determined by colorimetry, and the activity of SOD in serum was determined by ELISA.
2.3 Statistical analysis: the results were expressed as x±s. The results were analyzed by One-way ANOVA Dunnett test using SPSS 20 software.

Molecule	antioxidant activity
2,6-dihydroxynaphthyl-O-β-D-glucopyranoside [Compound 3]	significant antioxidant activity
COc1ccc(O)c(O[C@@H]2O[C@H](CO)[C@@H](O)[C@H](O)[C@H]2O)c1 [Compound 1, 2-hydroxyl-5-methoxylphenyl-O-β-D-glucopyranoside]	significant antioxidant activity
